Data taken from the supplement of paper PMC9233669.
This sample is rich in variants without activity.

How the values were obtained:
biotinyl-Ile-oxazolone = assay: self-aminoacylation, catalytic enhancement (BIO) (fold over background); higher = more active; k-Seq, kA / k0A0; sequences stand for … in GGGAAUGGAUCCACAUCUACGAAUUC…UUCACUGCAGACUUGACGAAGCUG
Procedure, shortened: (§1)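 Mutagenized RNA pools (0.43 μM; 21-nt variable region) were treated with 2–1250 μM of each biotinyl-aminoacyl-oxazolone. Conditions were 50 μL HEPES/NaCl/KCl/MgCl2/CaCl2 buffer, 5% acetonitrile, pH 6.9–7.0, room temperature, 90 minutes. Catalytic enhancement, the median kA relative to the uncatalyzed rate, was derived from streptavidin capture, qPCR and Illumina sequencing.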

biotinyl-Met-oxazolone = assay: self-aminoacylation, catalytic enhancement (BMO) (fold over background); higher = more active; k-Seq, kA / k0A0; sequences stand for … in GGGAAUGGAUCCACAUCUACGAAUUC…UUCACUGCAGACUUGACGAAGCUG
Procedure, shortened: as §1

biotinyl-Phe-oxazolone = assay: self-aminoacylation, catalytic enhancement (BFO) (fold over background); higher = more active; k-Seq, kA / k0A0; sequences stand for … in GGGAAUGGAUCCACAUCUACGAAUUC…UUCACUGCAGACUUGACGAAGCUG
Procedure, shortened: as §1

biotinyl-Leu-oxazolone = assay: self-aminoacylation, catalytic enhancement (BLO) (fold over background); higher = more active; k-Seq, kA / k0A0; sequences stand for … in GGGAAUGGAUCCACAUCUACGAAUUC…UUCACUGCAGACUUGACGAAGCUG
Procedure, shortened: as §1

biotinyl-Val-oxazolone = assay: self-aminoacylation, catalytic enhancement (BVO) (fold over background); higher = more active; k-Seq, kA / k0A0; sequences stand for … in GGGAAUGGAUCCACAUCUACGAAUUC…UUCACUGCAGACUUGACGAAGCUG
Procedure, shortened: as §1

biotinyl-Trp-oxazolone = assay: self-aminoacylation, catalytic enhancement (BWO) (fold over background); higher = more active; k-Seq, kA / k0A0; sequences stand for … in GGGAAUGGAUCCACAUCUACGAAUUC…UUCACUGCAGACUUGACGAAGCUG
Procedure, shortened: as §1

Row | Sequence | self-aminoacylation (biotinyl-Ile-oxazolone) | self-aminoacylation (biotinyl-Met-oxazolone) | self-aminoacylation (biotinyl-Phe-oxazolone) | self-aminoacylation (biotinyl-Leu-oxazolone) | self-aminoacylation (biotinyl-Val-oxazolone) | self-aminoacylation (biotinyl-Trp-oxazolone)
1 | CUACUGCAAACAAUCGGACUG [Fam1A.1 aminoacylation ribozyme variant] | 0.64 | 0.654 | 0.547 | 0.932 | 1.02 | 0.763
2 | CUACUGCAAACAAUCGGUUUG [Fam1A.1 aminoacylation ribozyme variant] | 0.866 | 0.677 | 0.976 | 1.09 | 0.969 | 0.446
3 | CUACUGCAAACGAUCGGUCUG [Fam1A.1 aminoacylation ribozyme variant] | 0.694 | 0.743 | 0.572 | 1.2 | 0.88 | 0.688
4 | CUACUGCAAAGAAUCGGUCUG [Fam1A.1 aminoacylation ribozyme variant] | 0.773 | 0.798 | 1.92 | 0.747 | 0.81 | 0.681
5 | CUACUUAAAACAAUCGGCCUG [Fam1A.1 aminoacylation ribozyme variant] | 0.969 | 1.18 | 0.916 | 1.12 | 0.831 | 1.13
6 | CUACUUAAAACAAUCGGUCUG [Fam1A.1 aminoacylation ribozyme variant] | 0.78 | 0.767 | 0.859 | 0.637 | 0.786 | 0.65
7 | CUACUUAAAACAUUCGGUCUG [Fam1A.1 aminoacylation ribozyme variant] | 1.23 | 1.3 | 0.827 | 1.14 | 1.08 | 0.936
8 | CUACUUCAAAAAAUAGGUCUG [Fam1A.1 aminoacylation ribozyme variant] | 0.881 | 0.691 | 0.878 | 0.639 | 0.882 | 0.665
9 | CUACUUCAAAAAAUUGGUCUG [Fam1A.1 aminoacylation ribozyme variant] | 0.931 | 0.83 | 0.842 | 0.903 | 0.768 | 0.761
10 | CUACUUCAAAAAUUCGGUCUG [Fam1A.1 aminoacylation ribozyme variant] | 1.44 | 1.37 | 3.5 | 1.65 | 1.45 | 1.12
11 | CUACUUCAAACAAACGGCCUG [Fam1A.1 aminoacylation ribozyme variant] | 1.38 | 1.01 | 0.719 | 1.18 | 1.13 | 0.967
12 | CUACUUCAAACAAACGGUCUC [Fam1A.1 aminoacylation ribozyme variant] | 0.671 | 0.599 | 1 | 0.651 | 0.686 | 0.448
13 | CUACUUCAAACAAGCGGUCAG [Fam1A.1 aminoacylation ribozyme variant] | 0.698 | 0.771 | 0.856 | 0.811 | 0.674 | 0.774
14 | CUACUUCAAACAAGCGGUCUU [Fam1A.1 aminoacylation ribozyme variant] | 1.06 | 0.989 | 0.824 | 0.996 | 1.02 | 0.716
15 | CUACUUCAAACAAGCGUUCUG [Fam1A.1 aminoacylation ribozyme variant] | 0.481 | 0.499 | 0.391 | 0.517 | 0.499 | 0.503
16 | CUACUUCAAACAAUCGAUCUA [Fam1A.1 aminoacylation ribozyme variant] | 0.551 | 0.449 | 0.839 | 0.546 | 0.822 | 0.404
17 | CUACUUCAAACAAUCGAUCUU [Fam1A.1 aminoacylation ribozyme variant] | 0.735 | 0.65 | 0.999 | 0.591 | 0.768 | 0.58
18 | CUACUUCAAACAAUCGGCCUG [Fam1A.1 aminoacylation ribozyme variant] | 1.69 | 1.87 | 85.3 | 2.86 | 1.78 | 48.1
19 | CUACUUCAAACAAUCGGGUUG [Fam1A.1 aminoacylation ribozyme variant] | 1.21 | 1.44 | 1.62 | 1.24 | 1.3 | 1.82
20 | CUACUUCAAACAAUCGGUCUU [Fam1A.1 aminoacylation ribozyme variant] | 1.09 | 1.06 | 31.2 | 1.3 | 1.05 | 15.3
21 | CUACUUCAAACAAUCGUUCUG [Fam1A.1 aminoacylation ribozyme variant] | 0.571 | 0.49 | 1.84 | 0.464 | 0.603 | 0.843
22 | CUACUUCAAACAAUCUGUCAG [Fam1A.1 aminoacylation ribozyme variant] | 0.652 | 0.554 | 0.601 | 0.544 | 0.683 | 0.418
23 | CUACUUCAAACAAUGGCUCUG [Fam1A.1 aminoacylation ribozyme variant] | 0.845 | 0.771 | 0.965 | 0.715 | 0.75 | 0.378
